# Measured values reported in patent publication US6403554B2, “Polyunsaturated fatty acid derivatives and their use” (Ardenia Investments Ltd., priority 1998, dated 2002).
# “Also recorded” adds a separate entry of the source. Some of these results come from one statement about several compounds together.
# Test system: antibody-forming cells (AFC) in the spleen
# Assay: Influence of compound on humoral immune response to sheep erythrocytes, C57B1/6 female mice (AFC in spleen, hemagglutinins)
# Format: in vivo
# Settings: for immunostimulating action: 136.5 μg/mouse
# Method: The increase was calculated as compared with the amount of cells in the animals immunised only with sheep erythrocytes.
# 0.15 ml of compound 10 was administered intravenously to 6 mice females of CS7B1/6 line (weight 18-22 g) in doses of 45.5, 91 and 136.5 μg of compound 10 per capita for each testing group according to the dose. Simultaneously, a suspension of 5·10^7 sheep erythrocytes was injected intraperitoneally (0.2 ml per capita). Mice in the control group were injected intravenously with equal volume of saline. The effects of compound 10 on humoral immune response were analyzed both by counting the quantity of AFC in the spleen according to Cunningham (per 10^6 spleen cells and per spleen) and estimating the titers of hemagglutining antibodies in serum of the animals (Cunningham A. J., Nature, 1965, Vol.207, No 5001. P.1106-1107), while the titers of hemagglutinating antibodies were evaluated according to litterature (Evans J. et al., Cell, 1974; Vol 3., p.153-158, Feizi T., Menger E., Transfusion, 1970, Vol. 10, p.33-35,).
# (§1) 0.15 ml of compound 11 was administered intravenously to 6 female mice of the C57B1/6 line (weight 18-22 g) in doses of 45.5, 91 and 136.5 μg of compound 11 per capita for each testing group according to the dose. Simultaneously, a suspension of 5·10^7 sheep erytrocytes was injected intraperitoneally (0.2 ml per capita). Mice in the control group were injected intravenously with an equal volume of saline. The effects of compound 11 on humoral immune response was analysed both by counting the quantity of AFC in the spleen according to Cunningham (per 10^6 spleen cells and per spleen) and estimating the titers of hemagglutining antibodies in serum of the animals.
# as §1, with “12” for “11”, “erythrocytes” for “erytrocytes”, “analyzed” for “analysed”
# as §1, with “compound 8” for “compound 11”, “sheep erythrocytes” for “sheep erytrocytes”, “Mice of” for “Mice in”, “response were analyzed” for “response was analysed”
# 0.15 ml of compound 3 was administered intravenously to 6 female mice of the C57B1/6 line (weight 18-22 g) in doses of 45.5, 91 and 136.5 μg of compound 3 per capita for each testing group according to the dose. Simultaneously, a suspension of 5·10^7 sheep erytrocytes was injected intraperitoneally (0.2 ml per capita). Mice of the control group were injected intravenously with equal volume of saline.
compound,measurement,setting,value
"CC/C=C\C/C=C\C/C=C\C/C=C\C/C=C\CCCC(=O)NCCOP(=O)(O)O [Compound 13, N-(cis-5,8,11,14,17-eicosapentaenoyl)-O-phospho-2-aminoethanol]",immunostimulating action,listed as compound 13,displayed an immunostimulating action; also recorded: display immunostimulating effect in vivo in micelle form
"CC/C=C\C/C=C\C/C=C\CCCCCCCC(=O)NCCOP(=O)(O)O [Compound 17, N-(cis-9,12,15-octadecatrienoyl)-O-phospho-2-aminoethanol]",immunostimulating action,listed as compound 17,displayed an immunostimulating action; also recorded: display immunostimulating effect in vivo in micelle form
"CCCCC/C=C\C/C=C\C/C=C\C/C=C\CCCC(=O)N[C@@H](Cc1ccc(OP(=O)(O)O)cc1)C(=O)O [Compound 8, N-(cis-5,8,11,14-eicosatetraenoyl)-O-phospho-L-tyrosine]",immunostimulating action,,displayed an immunostimulating action; also recorded: display immunostimulating effect in vivo in micelle form
same,immunogenic activity,45.5 and 91 μg/mouse,no immunogenic activity
"CC/C=C\C/C=C\C/C=C\C/C=C\C/C=C\C/C=C\CCC(=O)N[C@@H](Cc1ccc(OP(=O)(O)O)cc1)C(=O)O [Compound 12, N-(cis-4,7,10,13,16,19-docosahexaenoyl)-O-phospho-L-tyrosine]",immunostimulating action,listed as compound 12,displayed an immunostimulating action; also recorded: display immunostimulating effect in vivo in micelle form
"CC/C=C\C/C=C\C/C=C\CCCCCCCC(=O)N[C@@H](Cc1ccc(OP(=O)(O)O)cc1)C(=O)O [Compound 20, N-(cis-9,12,15-octadecatrienoyl)-O-phospho-L-tyrosine]",immunostimulating action,listed as compound 20,displayed an immunostimulating action; also recorded: display immunostimulating effect in vivo in micelle form
"CC/C=C\C/C=C\C/C=C\C/C=C\C/C=C\CCCC(=O)N[C@@H](COP(=O)(O)O)C(=O)O [Compound 14, N-(cis-5,8,11,14,17-eicosapentaenoyl)-O-phospho-L-serine]",immunostimulating action,listed as compound 14,displayed an immunostimulating action; also recorded: display immunostimulating effect in vivo in micelle form
